The values that follow come from publication PMC7001992.

Numbering of substitutions follows the chain as printed. These are yes or no findings as the source states them, for the method shown. In cells and extracts the contact can be indirect. These calls come from enrichment with a bait or labelling near it, and not all partners need be listed. No binding means not detected with the bait. Tags and fused reporters may be left off the sequences shown.

The target in experiment [1] is T1, Myc-tagged Makorin 1 (Mkrn1) (Drosophila melanogaster) (UniProt Q9VP20).
T1 sequence: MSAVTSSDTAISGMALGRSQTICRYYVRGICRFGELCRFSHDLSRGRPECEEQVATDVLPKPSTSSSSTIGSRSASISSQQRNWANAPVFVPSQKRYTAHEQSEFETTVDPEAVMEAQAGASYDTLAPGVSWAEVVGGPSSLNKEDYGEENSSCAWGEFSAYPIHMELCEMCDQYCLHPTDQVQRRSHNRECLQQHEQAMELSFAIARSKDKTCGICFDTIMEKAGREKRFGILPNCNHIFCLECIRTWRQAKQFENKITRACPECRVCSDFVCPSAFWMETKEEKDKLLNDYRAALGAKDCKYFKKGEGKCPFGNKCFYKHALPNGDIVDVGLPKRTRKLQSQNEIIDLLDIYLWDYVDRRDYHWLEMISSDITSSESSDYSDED
Briefly: affinity purification with mass spectrometry; Myc-Mkrn1, Myc-Mkrn1^RING or Myc-GFP (control) expressed in S2R+ cells, Myc IP from lysate, LC-MS/MS with label-free quantification, 3 technical replicates; cutoff log2 fold change ≥ 2 and FDR ≤ 0.05.

For experiment [2], the target named is T2, Myc-tagged Mkrn1 carrying a point mutation in the RING domain (Myc-Mkrn1^RING) (Drosophila melanogaster) (UniProt Q9VP20).
T2 sequence: T1 sequence with H239E
The experiment is described as above.

B1: eIF4E (protein, UniProt P48598 1-259)
chain: MQSDFHRMKNFANPKSMFKTSAPSTEQGRPEPPTSAAAPAEAKDVKPKEDPQETGEPAGNTATTTAPAGDDAVRTEHLYKHPLMNVWTLWYLENDRSKSWEDMQNEITSFDTVEDFWSLYNHIKPPSEIKLGSDYSLFKKNIRPMWEDAANKQGGRWVITLNKSSKTDLDNLWLDVLLCLIGEAFDHSDQICGAVINIRGKSNKISIWTADGNNEEAALEIGHKLRDALRLGRNNSLQYQLHKDTMVKQGSNVKSIYTL
B1: the binding result in experiment [1] and in experiment [2] was “no binding” throughout.
